This is an account of results in publication doi:10.1101/2020.08.14.246132.

No constants are given. Whether binding was seen depends on the method and setting. In cells and extracts the contact can be indirect. Some entries that bind do so weakly or less than the wild type. Where a sequence is shown, tags or fusion partners need not be part of it.

This assay concerns the target T1, Full-length human NLRP1 with a C-terminal FLAG tag (NLRP1-FLAG), wild type (human), Q9C000.
T1 chain: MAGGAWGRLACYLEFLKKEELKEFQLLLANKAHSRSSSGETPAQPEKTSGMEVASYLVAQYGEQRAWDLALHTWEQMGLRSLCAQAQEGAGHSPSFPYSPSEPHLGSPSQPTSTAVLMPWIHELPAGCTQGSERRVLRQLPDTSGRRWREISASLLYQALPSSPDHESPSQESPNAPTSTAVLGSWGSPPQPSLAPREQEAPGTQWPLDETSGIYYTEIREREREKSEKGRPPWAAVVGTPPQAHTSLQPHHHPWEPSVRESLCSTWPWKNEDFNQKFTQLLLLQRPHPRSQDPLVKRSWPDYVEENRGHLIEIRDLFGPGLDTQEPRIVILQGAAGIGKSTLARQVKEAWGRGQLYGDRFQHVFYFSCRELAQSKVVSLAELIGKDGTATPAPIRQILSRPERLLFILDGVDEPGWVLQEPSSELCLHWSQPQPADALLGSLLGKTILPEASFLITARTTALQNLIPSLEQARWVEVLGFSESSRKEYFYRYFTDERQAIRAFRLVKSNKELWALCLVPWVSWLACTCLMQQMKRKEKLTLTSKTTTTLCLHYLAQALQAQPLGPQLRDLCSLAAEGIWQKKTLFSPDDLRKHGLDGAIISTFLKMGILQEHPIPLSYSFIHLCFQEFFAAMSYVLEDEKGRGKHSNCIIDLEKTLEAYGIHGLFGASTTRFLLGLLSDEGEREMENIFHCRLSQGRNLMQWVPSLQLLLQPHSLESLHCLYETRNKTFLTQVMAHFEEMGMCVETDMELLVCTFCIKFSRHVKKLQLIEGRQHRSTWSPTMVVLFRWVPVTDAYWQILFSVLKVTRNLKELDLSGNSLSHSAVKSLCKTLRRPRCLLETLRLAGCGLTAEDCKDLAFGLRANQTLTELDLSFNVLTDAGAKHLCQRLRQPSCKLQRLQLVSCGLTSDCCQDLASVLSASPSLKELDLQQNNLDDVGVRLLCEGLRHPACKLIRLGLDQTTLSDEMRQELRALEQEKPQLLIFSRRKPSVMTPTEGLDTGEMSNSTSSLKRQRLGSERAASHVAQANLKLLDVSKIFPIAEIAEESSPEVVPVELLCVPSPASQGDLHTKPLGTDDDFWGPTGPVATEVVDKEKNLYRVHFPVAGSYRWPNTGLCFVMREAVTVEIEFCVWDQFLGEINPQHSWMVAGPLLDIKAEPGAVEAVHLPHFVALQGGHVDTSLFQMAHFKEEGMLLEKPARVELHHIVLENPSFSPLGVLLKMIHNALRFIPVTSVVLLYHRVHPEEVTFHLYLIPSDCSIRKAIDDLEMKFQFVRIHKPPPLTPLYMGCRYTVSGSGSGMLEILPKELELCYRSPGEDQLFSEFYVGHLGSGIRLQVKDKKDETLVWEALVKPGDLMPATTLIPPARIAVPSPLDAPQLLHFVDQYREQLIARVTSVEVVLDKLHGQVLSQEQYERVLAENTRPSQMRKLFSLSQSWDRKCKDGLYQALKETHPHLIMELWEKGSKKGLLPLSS
The assay can be described thus: co-IP. As to conditions: remark: other sources report otherwise.

B1: DPP9, short isoform, N-terminal His tag (His-TEV-DPP9), wild type, for co-immunoprecipitation, Q86TI2-1 1-863 (enzyme)
chain: MATTGTPTADRGDAAATDDPAARFQVQKHSWDGLRSIIHGSRKYSGLIVNKAPHDFQFVQKTDESGPHSHRLYYLGMPYGSRENSLLYSEIPKKVRKEALLLLSWKQMLDHFQATPHHGVYSREEELLRERKRLGVFGITSYDFHSESGLFLFQASNSLFHCRDGGKNGFMVSPMKPLEIKTQCSGPRMDPKICPADPAFFSFINNSDLWVANIETGEERRLTFCHQGLSNVLDDPKSAGVATFVIQEEFDRFTGYWWCPTASWEGSEGLKTLRILYEEVDESEVEVIHVPSPALEERKTDSYRYPRTGSKNPKIALKLAEFQTDSQGKIVSTQEKELVQPFSSLFPKVEYIARAGWTRDGKYAWAMFLDRPQQWLQLVLLPPALFIPSTENEEQRLASARAVPRNVQPYVVYEEVTNVWINVHDIFYPFPQSEGEDELCFLRANECKTGFCHLYKVTAVLKSQGYDWSEPFSPGEDEFKCPIKEEIALTSGEWEVLARHGSKIWVNEETKLVYFQGTKDTPLEHHLYVVSYEAAGEIVRLTTPGFSHSCSMSQNFDMFVSHYSSVSTPPCVHVYKLSGPDDDPLHKQPRFWASMMEAASCPPDYVPPEIFHFHTRSDVRLYGMIYKPHALQPGKKHPTVLFVYGGPQVQLVNNSFKGIKYLRLNTLASLGYAVVVIDGRGSCQRGLRFEGALKNQMGQVEIEDQVEGLQFVAEKYGFIDLSRVAIHGWSYGGFLSLMGLIHKPQVFKVAIAGAPVTVWMAYDTGYTERYMDVPENNQHGYEAGSVALHVEKLPNEPNRLLILHGFLDENVHFFHTNFLVSQLIRAGKPYQLQIYPNERHSIRCPESGEHYEVTLLHFLQEYL
Regarding B1, the binding entry is “binds”.
